Drawing on PMC11818545, this text covers binding for 1 molecule.

By UniProt entry, the sequences of proteins in these tests, tags left out.
UniProt P09528: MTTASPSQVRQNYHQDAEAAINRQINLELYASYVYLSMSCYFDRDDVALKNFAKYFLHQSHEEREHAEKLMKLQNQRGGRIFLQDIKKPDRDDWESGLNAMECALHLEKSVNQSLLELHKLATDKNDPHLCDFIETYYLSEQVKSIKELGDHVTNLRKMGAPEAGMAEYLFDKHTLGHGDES
UniProt Q9CUN6: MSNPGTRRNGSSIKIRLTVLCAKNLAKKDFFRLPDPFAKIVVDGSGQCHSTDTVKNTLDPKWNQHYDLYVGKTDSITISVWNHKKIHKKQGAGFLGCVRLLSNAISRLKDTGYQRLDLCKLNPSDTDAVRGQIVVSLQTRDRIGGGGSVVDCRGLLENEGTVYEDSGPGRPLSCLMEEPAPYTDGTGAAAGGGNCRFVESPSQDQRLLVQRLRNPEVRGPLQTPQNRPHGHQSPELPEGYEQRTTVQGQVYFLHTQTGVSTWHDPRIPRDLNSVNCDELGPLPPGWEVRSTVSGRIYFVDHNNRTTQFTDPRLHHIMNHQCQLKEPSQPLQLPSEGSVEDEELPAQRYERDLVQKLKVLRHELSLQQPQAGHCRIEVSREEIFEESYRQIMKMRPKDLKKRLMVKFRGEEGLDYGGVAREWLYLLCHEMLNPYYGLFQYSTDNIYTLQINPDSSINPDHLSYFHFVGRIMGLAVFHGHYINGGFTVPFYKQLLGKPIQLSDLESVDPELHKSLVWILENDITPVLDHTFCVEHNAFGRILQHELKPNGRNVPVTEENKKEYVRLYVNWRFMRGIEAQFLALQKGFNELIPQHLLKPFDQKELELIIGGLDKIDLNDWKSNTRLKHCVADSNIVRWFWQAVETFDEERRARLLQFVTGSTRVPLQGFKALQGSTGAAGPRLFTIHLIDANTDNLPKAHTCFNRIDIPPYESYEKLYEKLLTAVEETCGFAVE

Results are given in words; binding and its absence hold for the method and conditions named. In cells and extracts the contact can be indirect.

Test [1] addresses Ferritin heavy chain 1 (FTH1), endogenous in mouse primary myoblasts (mouse (endogenous in primary myoblasts)) (UniProt P09528). The test can be described thus: co-IP; reciprocal co-immunoprecipitation of endogenous proteins with SMURF1 or FTH1 antibody or control IgG, protein A/G plus-agarose, lysate of primary myoblasts cultured 4 days in differentiation medium, immunoblot. (In general: A western blot detects proteins with antibodies after separation by electrophoresis.)

Test [2] has as its target E3 ubiquitin-protein ligase SMURF1, endogenous in mouse primary myoblasts (mouse (endogenous in primary myoblasts)) (UniProt Q9CUN6). Described as above.

B1: Atrogin1, endogenous in mouse primary myoblasts (protein, UniProt Q9CPU7 1-355)
chain: MPFLGQDWRSPGQSWVKTADGWKRFLDEKSGSFVSDLSSYCNKEVYSKENLFSSLNYDVAAKKRKKDIQNSKTKTQYFHQEKWIYVHKGSTKERHGYCTLGEAFNRLDFSTAILDSRRFNYVVRLLELIAKSQLTSLSGIAQKNFMNILEKVVLKVLEDQQNIRLIRELLQTLYTSLCTLVQRVGKSVLVGNINMWVYRMETILHWQQQLNSIQISRPAFKGLTITDLPVCLQLNIMQRLSDGRDLVSLGQAAPDLHVLSEDRLLWKRLCQYHFSERQIRKRLILSDKGQLDWKKMYFKLVRCYPRREQYGVTLQLCKHCHILSWKGTDHPCTANNPESCSVSLSPQDFINLFKF
As to B1, the binding entry in test [1] and in test [2] was “no binding” each time.
